Laboratory results as given in the supplement of paper PMC3334620.
In all, about 33,000 sequences were measured (“E-score (-0.5 to 0.5)”: median about -0.0059, highest 2% from about 0.26 on). The list shows a part of the results.

Target: T1, Cin5 (UniProt P40917)
T1 sequence: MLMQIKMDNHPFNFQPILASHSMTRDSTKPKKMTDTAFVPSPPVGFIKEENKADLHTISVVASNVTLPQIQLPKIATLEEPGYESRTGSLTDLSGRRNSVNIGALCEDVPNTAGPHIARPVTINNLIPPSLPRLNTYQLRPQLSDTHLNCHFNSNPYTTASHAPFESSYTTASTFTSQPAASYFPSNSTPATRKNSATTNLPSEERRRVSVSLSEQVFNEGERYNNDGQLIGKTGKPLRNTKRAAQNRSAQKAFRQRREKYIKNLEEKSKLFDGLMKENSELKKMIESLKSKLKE
Experiment: PBM E-score (8-mer binding enrichment) (E-score (-0.5 to 0.5)); higher = stronger / more preferred TF binding
Conditions: protein concentration: 100 nM; construct: GST-full length
In short: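 Detection of bound protein used fluorescent anti-GST, with scans normalised by masliner. The proteins were GST-tagged yeast transcription factors applied at about 100-200 nM to universal all-10-mer Agilent arrays made double-stranded by primer extension. Each ungapped eight-base word, pooled with its reverse complement, was scored with an E-score from the Universal PBM Analysis Suite.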

| Sequence | PBM E-score |
| --- | --- |
| ATCTGCAT | 0.123 |
| CCAGCCGG | -0.172 |
| TCAGTGGA | -0.093 |
| ACAAACGA | 0.186 |
| TGCACGAA | 0.104 |
| AGTGATAG | 0.0167 |
| TCAAAAAA | 0.156 |
| ATGAGTGA | 0.168 |
| TCAACCCA | 0.088 |
| AGGTAAGC | 0.321 |
| CTCGGCTC | -0.113 |
| CAGAAGTA | 0.16 |
| CATGGGGC | -0.0962 |
| GCAGCCAA | 0.034 |
| CACTGAGG | -0.0826 |
| GCTCTAAC | -0.0778 |
| CCAGAATC | -0.0294 |
| ATTCTGAC | -0.0416 |
| ATGTGAAG | 0.142 |
| CATCATTC | 0.184 |
| TGTAGTAA | 0.238 |
| AATTGAAA | 0.244 |
| GATAATCA | 0.159 |
| ACACGTCA | 0.0157 |
| ATTCCTCA | -0.0129 |

| Sequence | PBM E-score |
| --- | --- |
| CCGAAACA | -0.00673 |
| AGCTGGAA | -0.0454 |
| CTTGACTA | 0.0185 |
| AGTCTTTA | -0.197 |
| AGTATCAT | 0.161 |
| CCAAGACA | 0.0311 |
| CTCGCGAC | 0.107 |
| TACGGGCA | -0.157 |
| ATAGATAG | 0.0352 |
| ACGCACAT | 0.0755 |
| CTCATGAC | 0.0295 |
| AGACGGCG | 0.085 |
| CCAAGCAG | -0.103 |
| AACCAGTC | -0.165 |
| AGGCGTGG | -0.2 |
| AATCTGTG | 0.122 |
| AACTAGCG | 0.102 |
| ATTACGTG | 0.423 |
| CGCTTACG | 0.379 |
| GGATCTAA | -0.0599 |
| ACACTCCA | 0.0651 |
| CTAACCCC | -0.197 |
| GAGGGATA | -0.313 |
| GGATCGTA | -0.0235 |
| GTCGGCTA | -0.0338 |

| Sequence | PBM E-score |
| --- | --- |
| CTATCAGC | 0.121 |
| CCATTGAA | 0.135 |
| AATAGTAG | 0.144 |
| GTCATACA | 0.162 |
| AAAGTACG | 0.12 |
| CGCAATTA | 0.0824 |
| GTTTGATA | 0.19 |
| ACAAAGCT | 0.0727 |
| GCCTTCAA | -0.118 |
| ATATCGCC | 0.0352 |
| AGTGCATG | -0.0115 |
| AACACACT | 0.22 |
| CCTAGCGC | -0.0991 |
| CAACCGTC | -0.179 |
| ACTTTCAC | 0.0418 |
| ATTATACC | 0.187 |
| TGACCCAA | 0.0896 |
| CTCTAGTC | -0.222 |
| TAGCCAAA | 0.0484 |
| ATATTGCA | 0.167 |
| AAACTGGC | 0.0555 |
| ATCAGAAC | 0.0397 |
| CCTTGCGA | 0.0783 |
| AGGGGGTA | -0.489 |
| AGCTGGCA | 0.0328 |

| Sequence | PBM E-score |
| --- | --- |
| GGCACGTA | -0.112 |
| AGTCGGAG | -0.214 |
| ATACGGGG | -0.0881 |
| CTTTCGAC | -0.0607 |
| GCAACGGC | -0.0325 |
| GCCACTAC | -0.0516 |
| GGCCCTCA | -0.342 |
| AGCCCTGG | -0.305 |
| ACGCATAA | 0.0967 |
| ACACATTA | 0.133 |
| CTTAGGCA | -0.266 |
| ACCGTCAC | -0.307 |
| AAGAGGTA | 0.0509 |
| GACATCTC | -0.0668 |
| AACGCTTA | 0.125 |
| CGTTGTAG | 0.105 |
| TATGCGAA | 0.131 |
| AGGTATCG | 0.0479 |
| CGCTATTA | 0.0337 |
| CTGGGGTC | 0.1 |
| CAAAGGAA | 0.148 |
| AAGTCTAT | -0.028 |
| CATTTGGG | 0.0397 |
| CGCACGTC | -0.0886 |
| GCAATTCA | 0.056 |

2 successive entries from above, quoted:

| Sequence | PBM E-score |
| --- | --- |
| GACATCTC | -0.0668 |
| AACGCTTA | 0.125 |

Later entries:

| Sequence | PBM E-score |
| --- | --- |
| GAGCCGTA | 0.0973 |
| CACCAATA | 0.0315 |
| AGACTAAT | -0.149 |
| ACCAGATA | 0.157 |
| AGCTGGCG | -0.178 |
| CCCCACTC | -0.0562 |
| ACCTGCTC | -0.0402 |
| CATGTAAC | 0.0447 |
| TAGAGTGA | -0.134 |
| ACGTTCCA | 0.0533 |
| ACGCAATC | 0.0758 |
| CCTGGACG | -0.179 |
| AACTAGGT | 0.118 |
| AGCAATTA | 0.213 |
| GGTGAACA | -0.203 |
| AACTGAGG | -0.0198 |
| AATGACTG | 0.0689 |
| ATTCCGAC | 0.0717 |
| CGAAGCCA | -0.0869 |
| AGGTACAA | -0.0713 |
| AACCACAA | 0.163 |
| GCGCCTTA | 0.109 |
| GTAACTAC | 0.189 |
| AAATCTCT | 0.0834 |
| CGGAGGCA | -0.0866 |

| Sequence | PBM E-score |
| --- | --- |
| CGACAGAC | -0.0325 |
| AACCTGTA | 0.0236 |
| GACCCCGC | 0.0921 |
| ACTATTTG | 0.2 |
| AGTGGACG | 0.121 |
| CCCAGGAA | -0.103 |
| CCACCCTC | 0.153 |
| ATGCCGAA | 0.041 |
| ATTCGAAT | -0.0194 |
| GAAGACGA | 0.16 |
| ACGTTGCA | -0.0503 |
| CTTGGCTA | 0.113 |
| CGAAGTCC | -0.134 |
| ATATACGC | 0.0713 |
| TGCCCGCA | 0.0753 |
| GCCGCTGA | 0.0604 |
| AATGCTGA | 0.118 |
| GACCCTCA | -0.275 |
| GTATAAGA | 0.0464 |
| CCCACCTC | -0.169 |
| GAGACAGC | -0.00537 |
| AGCTTACG | 0.337 |
| GCAGATAA | 0.0212 |
| AATTATGA | 0.257 |
| CCAAGTCG | -0.0522 |

| Sequence | PBM E-score |
| --- | --- |
| CGCCTAAG | -0.254 |
| ATCGTGCG | 0.213 |
| CGAACTGA | -0.0752 |
| CGGAGACG | -0.0111 |
| CGCCACTA | -0.0464 |
| TCCACAGA | 0.177 |
| GAACTCCA | 0.0209 |
| AGACACCA | -0.0438 |
| ACCCCGCA | 0.0374 |
| AGAGTACA | -0.0533 |
| CCTGTTGA | -0.106 |
| AGTTGTAT | 0.122 |
| ATTACGGG | 0.103 |
| ATTGGCAC | -0.00353 |
| CTACGGAC | -0.213 |
| GATACGGA | 0.0896 |
| GAGCGTTA | 0.0107 |
| GCAAGCCA | -0.21 |
| GAATATGC | -0.00758 |
| TAAGATCA | 0.0649 |
| AGATCGCT | -0.0295 |
| ATTCAAAT | 0.139 |

31 entries from above, reformatted:
Sequence | PBM E-score
AGTCGGAG | -0.214
ATACGGGG | -0.0881
CTTTCGAC | -0.0607
GCAACGGC | -0.0325
GCCACTAC | -0.0516
GGCCCTCA | -0.342
AGCCCTGG | -0.305
ACGCATAA | 0.0967
ACACATTA | 0.133
CTTAGGCA | -0.266
ACCGTCAC | -0.307
AAGAGGTA | 0.0509
GACATCTC | -0.0668
AACGCTTA | 0.125
CGTTGTAG | 0.105
TATGCGAA | 0.131
AGGTATCG | 0.0479
CGCTATTA | 0.0337
CTGGGGTC | 0.1
CAAAGGAA | 0.148
AAGTCTAT | -0.028
CATTTGGG | 0.0397
CGCACGTC | -0.0886
GCAATTCA | 0.056
GAGCCGTA | 0.0973
CACCAATA | 0.0315
AGACTAAT | -0.149
ACCAGATA | 0.157
AGCTGGCG | -0.178
CCCCACTC | -0.0562
ACCTGCTC | -0.0402
